Record: PubChem BioAssay AID1159584 (Peter MacCallum Cancer Centre, 2016)

Assay: 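Knock-downs that harm CDH1-null cells more than parental MCF10A cells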 (primary screen)
Cell system: human MCF10A breast epithelial cells, parental and CDH1-null
Knock-down reagent: siRNA against human genes
Read-out: 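Cell viability by CellTiter-Glo ATP luminescence, each line scaled to the mean of mock wells across plates, then CDH1-null over parental ratio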
Scale: CDH1-null / parental viability ratio: higher = CDH1-null cells survive relatively better than parental; CDH1-null viability vs mock: higher = more viable CDH1-null cells
Here is an unselected part of about 18,000 reagents tested. Not all columns of the deposit are shown. The record does not give: the amount of reagent, the time to read-out.

| Target gene | CDH1-null / parental viability ratio | CDH1-null viability vs mock (fraction of mock) |
| --- | --- | --- |
| GEMIN6 | 0.93 | 0.56 |
| MAP4K1 | 1.07 | 0.77 |
| FAM89B | 0.76 | 0.56 |
| WDR6 | 0.91 | 0.59 |
| RXFP2 | 0.91 | 0.84 |
| CYS1 | 1.05 | 0.84 |
| EFS | 0.97 | 0.72 |
| DGKB | 1.25 | 1 |
| SAXO2 | 0.87 | 1 |
| SHANK1 | 1.29 | 0.98 |
| APLP2 | 0.99 | 0.89 |
| PI4K2A | 1.02 | 0.9 |

Reformatted: results already given.
RXFP2 → CDH1-null / parental viability ratio = 0.91; CDH1-null viability vs mock (fraction of mock) = 0.84
CYS1 → CDH1-null / parental viability ratio = 1.05; CDH1-null viability vs mock (fraction of mock) = 0.84

The listing continues:
| Target gene | CDH1-null / parental viability ratio | CDH1-null viability vs mock (fraction of mock) |
| --- | --- | --- |
| PCLAF | 0.7 | 0.65 |
| SOX2 | 0.92 | 0.68 |
| CC2D1B | 0.89 | 0.8 |
| DNAI4 | 0.7 | 0.44 |
| ECSCR | 1.34 | 1.06 |
| ORM2 | 1.11 | 0.9 |
| TMEM45B | 0.58 | 0.31 |
| EEIG1 | 1.22 | 1.21 |
| MANBA | 1.04 | 0.98 |
| TRMT2B | 1.38 | 1.24 |
| SHCBP1 | 1.33 | 0.97 |
| EYS | 0.97 | 0.93 |
| ZBTB14 | 1 | 0.79 |
| ZNF35 | 0.94 | 0.81 |
| COL24A1 | 1.02 | 0.63 |
| EXOSC7 | 1.11 | 0.84 |
